{"source": "patent US8334261B2", "about": "“Osteopenia animal model” (Oriental Yeast Co., Ltd., priority 2006, dated 2012)", "system": "GST-RANKL-administered 7-week-old female C57BL/6 mice", "assay": "Comparison of a plurality of bisphosphonates in GST-RANKL mice", "assay_type": "in vivo, mouse", "conditions": "300 μg/kg; 0.6-mm point", "description": "GST-RANKL was intraperitoneally administered 3 times at 1 mg/kg every 24 hours. The femur, tibia, and serum were collected from each mouse 1.5 hours after the 3rd GST-RANKL administration. Measurement of TRAP-5b, calcium (Ca), and alkaline phosphatase (ALP) in the serum was carried out. Each femur was subjected to bone density measurement with pQCT and image analysis with micro CT."}
{"smiles": "NCCCC(O)(P(=O)(O)O)P(=O)(O)O", "note": "[alendronate]", "values": [{"measurement": "bone density decrease suppressed to", "result": 1, "unit": "%"}]}
